Source: paper PMC4712141
These are yes or no findings as the source states them, for the method shown. For part of these data: In cells and extracts the contact can be indirect. Some binding calls cover weakened binding; strength is not graded here.

Chains of the proteins cited; added tags and fusions are not shown. Lines headed by an entry give the natural chain unless they say otherwise; changes in a name come on top. A line that says so, or that is headed by a name, gives the form on record, which may keep a tag or linker. Residues count along the entry.
UniProt A0A509AQ20: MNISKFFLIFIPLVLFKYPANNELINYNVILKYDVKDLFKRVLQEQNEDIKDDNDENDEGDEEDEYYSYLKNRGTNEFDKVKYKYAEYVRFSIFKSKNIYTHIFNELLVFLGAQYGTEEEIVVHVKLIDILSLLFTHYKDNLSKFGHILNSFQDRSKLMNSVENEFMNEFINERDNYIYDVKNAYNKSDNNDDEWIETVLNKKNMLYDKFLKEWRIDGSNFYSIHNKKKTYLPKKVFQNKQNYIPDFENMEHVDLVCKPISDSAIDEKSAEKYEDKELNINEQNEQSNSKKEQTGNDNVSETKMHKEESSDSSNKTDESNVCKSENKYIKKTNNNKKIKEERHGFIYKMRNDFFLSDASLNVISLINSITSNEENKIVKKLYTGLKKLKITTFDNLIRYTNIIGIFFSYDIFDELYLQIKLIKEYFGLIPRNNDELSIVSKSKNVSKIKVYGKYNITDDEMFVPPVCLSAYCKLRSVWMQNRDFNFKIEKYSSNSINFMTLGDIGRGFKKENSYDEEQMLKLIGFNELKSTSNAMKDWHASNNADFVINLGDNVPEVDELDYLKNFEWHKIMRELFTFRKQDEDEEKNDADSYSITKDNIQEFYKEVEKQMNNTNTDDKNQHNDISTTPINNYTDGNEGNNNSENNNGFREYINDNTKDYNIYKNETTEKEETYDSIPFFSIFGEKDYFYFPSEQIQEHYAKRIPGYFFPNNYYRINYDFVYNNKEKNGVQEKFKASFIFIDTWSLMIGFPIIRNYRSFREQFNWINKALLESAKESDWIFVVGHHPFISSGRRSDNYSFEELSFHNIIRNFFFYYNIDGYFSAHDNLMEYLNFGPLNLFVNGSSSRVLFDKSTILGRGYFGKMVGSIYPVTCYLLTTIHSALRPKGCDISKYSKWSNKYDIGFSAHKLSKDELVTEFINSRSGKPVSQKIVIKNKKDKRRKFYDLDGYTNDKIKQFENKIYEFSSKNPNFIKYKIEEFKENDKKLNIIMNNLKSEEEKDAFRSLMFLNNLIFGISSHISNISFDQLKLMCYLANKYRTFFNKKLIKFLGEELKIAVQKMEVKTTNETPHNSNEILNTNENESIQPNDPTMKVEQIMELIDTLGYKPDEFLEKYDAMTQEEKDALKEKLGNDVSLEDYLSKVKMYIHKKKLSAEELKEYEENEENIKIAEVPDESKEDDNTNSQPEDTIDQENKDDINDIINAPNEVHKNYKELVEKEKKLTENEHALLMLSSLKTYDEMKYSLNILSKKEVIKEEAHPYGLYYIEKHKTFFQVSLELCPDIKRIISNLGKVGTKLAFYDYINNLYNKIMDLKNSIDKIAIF
GST- and His-tagged PbUIS2 PD: residues 535-1054 of A0A509AQ20

B1: purified recombinant PfeIF2α-P (protein, UniProt Q8IBH7 1-329)
chain: MTEMRVKADLGDCRFYKKKFPEVDDLIMVKVNRIEDMGAYVSILEYNDMEGMILMSELSKRRFRSVNKLIRVGRHEVVLVLRVDSQKGYIDLSKRRVSPKDIIKCEEKFSKSKKVHQTVRHVAKEHGITVEELNEKAIWPLYERYGHALDALKEATMNPENVFKGLDISEEIKNSLLKDIKLRLTPQALKLRGRIDVWCFGYEGIDAVKEALKKGKEISNDKVSINIKLIAPPQYVIVTSCHDKDLGMAKIQEAMKVISDKIKEYKGGDFKQQGEILVIGGDEEKRLEELLDKHDGISSDDDDYNTSDEDDENSSEEDENTSEDEEEED
modifications: phosphorylated (eIF2α-P); regulatory ser59

Tests used:
[1] = target: GST-PfeIF2αS59D (P. falciparum) (UniProt Q8IBH7); experiment: pull-down; GST-PfeIF2α (wt, S59A or S59D) immobilized on glutathione column, incubated 2 hours with lysates of P. berghei blood stage parasites with or without Sal (50 μM) or GA (70 μM); 3 washes with high-salt NETN buffer (300 mM NaCl, 20 mM Tris-HCl pH 8.0, 0.5 mM EDTA, 0.5% NP-40); eluted with reduced glutathione; immunoblot; only the target purified
[2] = target: GST-PfeIF2αS59A (P. falciparum) (UniProt Q8IBH7); experiment: as above
[3] = target: GST- and His-tagged PbUIS2 PD (P. berghei); experiment: pull-down; GST- and His-tagged PbUIS2 N-ter, PD or C-ter immobilized on glutathione sepharose 4B, incubated with purified recombinant PfeIF2α-P or PfeIF2α; 3 washes with high-salt NETN buffer (300 mM NaCl, 20 mM Tris-HCl pH 8.0, 0.5 mM EDTA, 0.5% NP-40); SDS-PAGE, coomassie staining; retained band identified by mass spectrometry; both purified

Row | Molecule | binding [1] | binding [2] | binding [3]
1 | endogenous P. berghei UIS2 (from UniProt A0A509AQ20 23-1322) (enzyme) | binds | no binding | –
2 | B1 | – | – | no binding
